Results as given in paper PMC12877406.
Results are given in words; binding and its absence hold for the method and conditions named. Binding seen in cells or lysates may run through a third protein. Some binding calls cover weakened binding; strength is not graded here.

Protein sequences, listed by entry. Tags and fused reporters are not part of them. Residues count along the entry.
UniProt P46531, residues 19-2555: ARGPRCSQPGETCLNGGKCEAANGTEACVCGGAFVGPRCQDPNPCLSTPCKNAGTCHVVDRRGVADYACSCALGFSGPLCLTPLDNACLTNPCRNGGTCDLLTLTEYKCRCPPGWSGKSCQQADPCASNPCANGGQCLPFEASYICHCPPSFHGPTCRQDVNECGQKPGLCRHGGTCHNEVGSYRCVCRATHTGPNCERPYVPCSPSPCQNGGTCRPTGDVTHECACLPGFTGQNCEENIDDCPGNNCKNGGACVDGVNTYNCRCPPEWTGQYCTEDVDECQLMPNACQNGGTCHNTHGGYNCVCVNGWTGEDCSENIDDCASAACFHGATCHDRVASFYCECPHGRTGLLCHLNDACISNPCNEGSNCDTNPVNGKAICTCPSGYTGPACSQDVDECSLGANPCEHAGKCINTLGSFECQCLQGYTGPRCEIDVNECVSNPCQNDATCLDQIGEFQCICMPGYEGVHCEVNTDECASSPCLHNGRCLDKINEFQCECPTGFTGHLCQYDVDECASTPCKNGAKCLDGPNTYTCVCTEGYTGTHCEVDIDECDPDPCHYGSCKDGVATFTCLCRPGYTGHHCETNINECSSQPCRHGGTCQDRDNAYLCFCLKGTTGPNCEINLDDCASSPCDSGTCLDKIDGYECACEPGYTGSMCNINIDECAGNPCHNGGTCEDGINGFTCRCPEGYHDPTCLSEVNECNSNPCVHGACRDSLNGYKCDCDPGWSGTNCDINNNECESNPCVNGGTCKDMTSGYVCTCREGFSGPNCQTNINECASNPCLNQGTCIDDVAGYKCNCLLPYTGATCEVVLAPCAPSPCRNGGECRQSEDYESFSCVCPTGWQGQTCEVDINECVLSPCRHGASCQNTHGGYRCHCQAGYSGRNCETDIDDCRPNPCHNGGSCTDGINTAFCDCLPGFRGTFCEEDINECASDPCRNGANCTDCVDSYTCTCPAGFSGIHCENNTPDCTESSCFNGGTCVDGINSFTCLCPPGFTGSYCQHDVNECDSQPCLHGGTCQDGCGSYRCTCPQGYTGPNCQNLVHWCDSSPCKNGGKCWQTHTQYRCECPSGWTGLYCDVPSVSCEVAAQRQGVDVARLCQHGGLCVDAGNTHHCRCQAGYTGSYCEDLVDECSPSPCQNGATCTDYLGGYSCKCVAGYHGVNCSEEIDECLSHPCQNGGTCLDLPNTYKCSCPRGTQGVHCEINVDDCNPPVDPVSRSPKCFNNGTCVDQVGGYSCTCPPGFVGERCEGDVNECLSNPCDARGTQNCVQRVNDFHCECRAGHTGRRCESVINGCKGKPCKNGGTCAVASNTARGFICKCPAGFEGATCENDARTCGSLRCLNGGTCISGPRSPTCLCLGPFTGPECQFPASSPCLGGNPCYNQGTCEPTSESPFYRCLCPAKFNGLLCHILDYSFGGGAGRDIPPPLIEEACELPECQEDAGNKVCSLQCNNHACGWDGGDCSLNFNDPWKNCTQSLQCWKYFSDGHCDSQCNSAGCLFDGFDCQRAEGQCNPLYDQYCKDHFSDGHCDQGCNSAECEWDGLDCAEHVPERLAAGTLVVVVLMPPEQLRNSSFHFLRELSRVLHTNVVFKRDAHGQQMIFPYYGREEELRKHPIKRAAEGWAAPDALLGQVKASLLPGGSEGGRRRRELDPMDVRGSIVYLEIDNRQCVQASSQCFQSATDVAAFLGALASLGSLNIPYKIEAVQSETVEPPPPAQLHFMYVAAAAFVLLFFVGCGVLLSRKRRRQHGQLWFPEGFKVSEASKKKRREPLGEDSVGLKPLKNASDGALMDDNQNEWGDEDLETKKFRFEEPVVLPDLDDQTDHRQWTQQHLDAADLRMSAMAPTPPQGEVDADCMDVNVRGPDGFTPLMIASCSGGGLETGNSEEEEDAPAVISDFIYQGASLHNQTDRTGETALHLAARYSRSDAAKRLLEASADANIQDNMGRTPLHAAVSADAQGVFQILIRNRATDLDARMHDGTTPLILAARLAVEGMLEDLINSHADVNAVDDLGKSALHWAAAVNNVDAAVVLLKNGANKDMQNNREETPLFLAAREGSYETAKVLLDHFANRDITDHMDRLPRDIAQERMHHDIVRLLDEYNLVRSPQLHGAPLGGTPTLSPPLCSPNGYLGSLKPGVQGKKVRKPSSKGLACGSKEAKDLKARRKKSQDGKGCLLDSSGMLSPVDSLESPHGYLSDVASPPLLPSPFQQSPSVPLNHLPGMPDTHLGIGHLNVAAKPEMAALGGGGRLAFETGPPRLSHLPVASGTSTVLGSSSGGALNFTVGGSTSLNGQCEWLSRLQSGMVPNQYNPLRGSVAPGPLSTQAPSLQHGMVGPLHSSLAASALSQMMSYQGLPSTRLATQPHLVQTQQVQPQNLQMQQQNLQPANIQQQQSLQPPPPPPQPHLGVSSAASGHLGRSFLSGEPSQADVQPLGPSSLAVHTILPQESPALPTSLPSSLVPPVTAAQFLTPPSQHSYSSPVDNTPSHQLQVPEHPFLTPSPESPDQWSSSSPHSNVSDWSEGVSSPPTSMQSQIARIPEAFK
UniProt P07355: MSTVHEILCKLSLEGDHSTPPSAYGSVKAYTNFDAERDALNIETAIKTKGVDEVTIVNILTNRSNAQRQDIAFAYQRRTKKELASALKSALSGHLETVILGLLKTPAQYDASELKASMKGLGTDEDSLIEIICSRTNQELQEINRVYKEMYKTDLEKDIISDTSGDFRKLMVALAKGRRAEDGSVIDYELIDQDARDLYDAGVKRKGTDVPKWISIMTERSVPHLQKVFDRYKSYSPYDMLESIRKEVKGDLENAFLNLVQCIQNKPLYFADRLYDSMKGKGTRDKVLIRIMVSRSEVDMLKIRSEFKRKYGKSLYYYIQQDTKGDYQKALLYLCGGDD
UniProt Q03135: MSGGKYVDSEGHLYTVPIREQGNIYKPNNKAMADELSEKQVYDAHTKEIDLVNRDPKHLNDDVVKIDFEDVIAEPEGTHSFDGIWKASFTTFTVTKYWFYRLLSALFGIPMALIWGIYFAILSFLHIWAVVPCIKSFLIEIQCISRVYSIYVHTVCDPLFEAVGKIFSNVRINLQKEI

Target: Notch1 (human (endogenous in hdBECs)) (UniProt P46531)
Assay: co-IP; immunoprecipitation of endogenous Notch1 with primary antibody (1.5 ug per mg of lysate protein, 2 h, 4°C) and Protein A/G beads from hdBEC lysates (static or flow); IP lysis buffer pH 7.4, 25 mM Tris, 150 mM NaCl, 5 mM MgCl2, 1% Triton X-100; Western blot

Row | binding | Substance
1 | binds | annexin A2 (from UniProt P07355 1-339)
2 | binds | caveolin-1 (from UniProt Q03135 1-178)
